The source of these data is publication doi:10.1101/2023.12.08.570772.

By UniProt entry, the sequences of proteins in these tests, tags left out.
UniProt Q13263: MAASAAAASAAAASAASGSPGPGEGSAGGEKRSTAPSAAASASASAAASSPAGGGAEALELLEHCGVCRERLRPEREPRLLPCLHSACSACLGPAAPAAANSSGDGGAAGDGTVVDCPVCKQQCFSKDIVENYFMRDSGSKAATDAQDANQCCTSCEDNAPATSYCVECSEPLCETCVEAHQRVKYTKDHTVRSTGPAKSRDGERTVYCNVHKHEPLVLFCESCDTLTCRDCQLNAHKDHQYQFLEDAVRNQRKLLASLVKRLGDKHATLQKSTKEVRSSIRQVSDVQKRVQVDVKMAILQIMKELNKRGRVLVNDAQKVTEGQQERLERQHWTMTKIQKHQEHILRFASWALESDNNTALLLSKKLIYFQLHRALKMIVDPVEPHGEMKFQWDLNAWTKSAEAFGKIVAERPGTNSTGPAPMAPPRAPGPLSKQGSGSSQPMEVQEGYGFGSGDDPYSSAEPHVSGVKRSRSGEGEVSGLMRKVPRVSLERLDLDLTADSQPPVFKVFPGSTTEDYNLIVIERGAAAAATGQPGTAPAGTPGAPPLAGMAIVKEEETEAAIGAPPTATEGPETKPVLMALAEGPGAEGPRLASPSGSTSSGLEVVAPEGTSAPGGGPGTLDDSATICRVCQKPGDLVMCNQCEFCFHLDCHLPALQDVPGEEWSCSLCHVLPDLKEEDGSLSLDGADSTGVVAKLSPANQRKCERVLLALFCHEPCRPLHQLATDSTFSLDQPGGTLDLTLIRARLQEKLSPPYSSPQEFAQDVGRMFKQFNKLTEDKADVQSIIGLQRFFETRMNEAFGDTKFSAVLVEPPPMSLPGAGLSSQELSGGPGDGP

Changes are numbered by the printed parent chain. These are yes or no findings as the source states them, for the method shown. Binding seen in cells or lysates may run through a third protein. These calls come from enrichment with a bait or labelling near it, and not all partners need be listed. For some assays here: A no says only that the protein was not detected with the bait. Where a sequence is shown, tags or fusion partners need not be part of it.

Assay [1] deals with T1, GFP-tagged MAGEC2 WT (human) (UniProt Q9UBF1).
T1 sequence: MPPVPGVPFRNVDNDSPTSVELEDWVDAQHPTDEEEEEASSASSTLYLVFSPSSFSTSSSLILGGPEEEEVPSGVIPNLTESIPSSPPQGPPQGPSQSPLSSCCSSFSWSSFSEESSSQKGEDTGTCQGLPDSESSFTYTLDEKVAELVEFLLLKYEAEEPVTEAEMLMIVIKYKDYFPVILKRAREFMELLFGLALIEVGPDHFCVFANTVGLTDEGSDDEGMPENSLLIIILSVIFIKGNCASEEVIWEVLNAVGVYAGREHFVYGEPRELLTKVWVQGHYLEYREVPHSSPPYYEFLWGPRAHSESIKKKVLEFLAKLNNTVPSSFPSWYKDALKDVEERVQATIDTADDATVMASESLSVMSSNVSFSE
The assay is described as follows: affinity purification with mass spectrometry.

For assay [2], the target named is T2, GFP-tagged MAGEC2 L318D (human) (UniProt Q9UBF1).
T2 sequence: T1 sequence with L318D
The assay can be described thus: affinity purification with mass spectrometry.

For the substance “Tripartite motif-containing protein 28 (TRIM28) (from UniProt Q13263 1-835) (enzyme)”, the binding entry is “binds” in assay [1] and “no binding” in assay [2].
